In patent US9445596B2, “Small molecule compounds for the control of nematodes” (California Institute of Technology, priority 2011, dated 2016):

Test system: daf-22(m130) worms
Test: Ascaroside feeding experiment with daf-22(m130)
Assay type: in vivo, C. elegans
Conditions: 5 μM per culture; incubated for 5 days; LC-MS

Row | SMILES | conversion into indole ascarosides by daf-22(m130) worms
1 | CC1O[C@@H](O[C@H](C)CCCC/C=C/C(=O)O)[C@@H](O)C[C@H]1O (some centres unmarked) [ascr#3] | convert added ascr#3 into icas#3
2 | CC1O[C@@H](O[C@H](C)CCCCCCC(=O)O)C(O)C[C@H]1O (some centres unmarked) [ascr#10] | preferred over conversion of (ω)-ascaroside oscr#10
